Experimental data from the supplement of paper PMC12823440, “Inhibitors supercharge kinase turnover through native proteolytic circuits” (Nature, 2025).
Where a name gives a salt, the structure may show the parent alone. The list shows a part of the results. The calls rarely recur for the same compound in another form.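 Kinases, fused to nanoluciferase, were expressed in K562 cells; luminescence was measured every 4 h from 2 to 18 h as percent of control (DMSO = 100%, positive control = 0%). A time point is decreased if signal falls significantly (2 sigma). Hits were called by the authors by a rule that is not shown; the count of time points alone does not decide it.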

Protein sequences, listed by entry. Tags and fused reporters are not part of them. Lines headed by an entry give the natural chain unless they say otherwise; changes in a name come on top.
UniProt Q8IWU2: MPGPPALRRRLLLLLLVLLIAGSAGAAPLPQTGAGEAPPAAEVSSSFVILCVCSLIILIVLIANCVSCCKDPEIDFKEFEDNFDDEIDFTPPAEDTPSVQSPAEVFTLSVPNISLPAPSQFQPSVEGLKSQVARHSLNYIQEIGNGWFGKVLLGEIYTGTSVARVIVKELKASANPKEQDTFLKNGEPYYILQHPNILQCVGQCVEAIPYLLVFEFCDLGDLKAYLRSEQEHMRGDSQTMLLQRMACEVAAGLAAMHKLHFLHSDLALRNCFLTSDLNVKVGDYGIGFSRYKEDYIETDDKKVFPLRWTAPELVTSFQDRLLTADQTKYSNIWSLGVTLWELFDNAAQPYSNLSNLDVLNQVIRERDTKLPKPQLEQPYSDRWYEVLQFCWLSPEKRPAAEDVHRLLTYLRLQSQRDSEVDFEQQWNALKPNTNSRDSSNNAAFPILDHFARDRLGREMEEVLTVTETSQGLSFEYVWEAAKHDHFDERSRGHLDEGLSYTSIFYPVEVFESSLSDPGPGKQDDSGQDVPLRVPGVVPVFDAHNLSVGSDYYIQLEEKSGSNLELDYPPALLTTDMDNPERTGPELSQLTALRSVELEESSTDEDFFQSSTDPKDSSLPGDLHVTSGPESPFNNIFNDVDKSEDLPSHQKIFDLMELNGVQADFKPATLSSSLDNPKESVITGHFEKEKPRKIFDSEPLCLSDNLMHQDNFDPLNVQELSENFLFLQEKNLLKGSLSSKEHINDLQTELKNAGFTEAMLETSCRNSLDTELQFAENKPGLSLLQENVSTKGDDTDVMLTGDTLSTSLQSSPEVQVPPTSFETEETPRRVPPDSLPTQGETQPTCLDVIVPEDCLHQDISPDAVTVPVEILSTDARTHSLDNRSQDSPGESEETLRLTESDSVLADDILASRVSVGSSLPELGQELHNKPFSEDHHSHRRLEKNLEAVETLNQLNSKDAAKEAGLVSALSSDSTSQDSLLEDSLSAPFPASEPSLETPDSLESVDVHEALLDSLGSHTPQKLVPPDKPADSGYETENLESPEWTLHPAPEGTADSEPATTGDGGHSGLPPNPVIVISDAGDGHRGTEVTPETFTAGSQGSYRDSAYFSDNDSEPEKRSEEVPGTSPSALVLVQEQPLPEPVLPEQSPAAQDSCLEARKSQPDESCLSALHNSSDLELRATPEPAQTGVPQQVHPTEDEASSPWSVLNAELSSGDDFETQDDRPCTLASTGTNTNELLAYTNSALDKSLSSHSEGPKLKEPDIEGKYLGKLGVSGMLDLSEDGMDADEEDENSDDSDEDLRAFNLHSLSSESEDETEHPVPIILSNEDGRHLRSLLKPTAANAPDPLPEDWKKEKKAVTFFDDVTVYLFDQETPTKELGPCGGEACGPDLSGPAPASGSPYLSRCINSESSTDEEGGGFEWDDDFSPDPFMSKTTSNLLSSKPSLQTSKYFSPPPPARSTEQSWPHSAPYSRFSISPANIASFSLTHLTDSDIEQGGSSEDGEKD

Target: LMTK2 (UniProt Q8IWU2)
Assay: number of time points (of 5) at which kinase-Nluc abundance scored as decreased, DMSO-normalised (count); higher = more persistent destabilization
Conditions: K562; 2-18 h

| SMILES | number of time points |
| --- | --- |
| CCc1c(C(=O)NNC(=O)C(O)c2cc(F)cc(F)c2)ccc(O)c1C (stereo not given) (10 µM) | 0 |
| COc1cc2ncnc(Nc3ccc(Cl)cc3F)c2cc1OC (10 µM) | 0 |
| COc1cc(/C=C/C(=O)NCC(O)c2ccc(O)cc2)ccc1O (stereo not given) [N-Feruloyloctopamine] (2.5 µM) | 0 |
| NC(=O)c1nc(Nc2ccccc2)sc1NC(=O)C1CCCCC1 (10 µM) | 0 |
| O=c1cc(CN2CCOCC2)occ1OCCCCCSc1ccnc2cc(C(F)(F)F)ccc12 (10 µM) | 0 |
| O=C(O)CCC(=O)Nc1ccc(Br)cn1 [Bikinin] (10 µM) | 0 |
| CC[C@@H](Oc1nc(Oc2cc(C)cc(-c3cccc(CN)c3)c2)c(F)cc1F)C(=O)O (10 µM) | 0 |
| C[C@]1(O)CCN(c2nc(N3C[C@H](O)[C@@H](O)C3)cc(C(F)(F)F)c2C#N)C1 (10 µM) | 0 |
| COc1ccccc1-c1cc(Nc2cccc(CS(N)(=O)=O)c2)ncn1 (10 µM) | 3 |
| CC(=O)c1c(C)cc2cccc(O)c2c1O [Nepodin] (10 µM) | 0 |
| NC(=O)c1ccc2[nH]ccc2c1 (10 µM) | 0 |
| COc1cc2c(cc1OC)CN(S(=O)(=O)c1ccc(OC)c(N3CCN(C(=O)c4ccc(F)cc4C(F)(F)F)CC3)c1)CC2 (10 µM) | 0 |
| OCCn1cc(-c2ccc3c(c2)CC/C3=N\O)c(-c2ccncc2)n1 (10 µM) | 0 |
| C[C@@H]1CC[C@@H](Nc2nc(NC(C)(C)C)ncc2C(N)=O)C[C@H]1O (10 µM) | 0 |
| CCc1cc2c(cc1N1CCC(N3CCOCC3)CC1)C(C)(C)c1[nH]c3cc(C#N)ccc3c1C2=O [Alectinib] (10 µM) | 0 |
| COCCNc1nc2ccc(C#CC3(O)CCCCC3)cc2n1-c1ccnc(N)n1 (10 µM) | 0 |
| Cc1[nH]c(/C=C2\C(=O)Nc3ccccc32)c(C)c1CCC(=O)O [Orantinib] (10 µM) | 0 |
| Nc1cc(C(F)(F)F)c(-c2cc(N3CCOCC3)nc(N3CCOCC3)n2)cn1 [Buparlisib (Hydrochloride)] (2.5 µM) | 0 |

| SMILES | number of time points |
| --- | --- |
| CCN1CCN(Cc2ccc(Nc3ncc(F)c(-c4cc(F)c5nc(C)n(C(C)C)c5c4)n3)nc2)CC1 [Abemaciclib (methanesulfonate)] (10 µM) | 3 |
| Cc1ccc2cc(-c3c(C)ccc(C(=O)c4c(-c5ccccc5)n(C)n(-c5ccccc5)c4=O)c3N)ccc2n1 (2.5 µM) | 0 |
| FC(F)(c1ccc2ncccc2c1)c1nnc2ccc(-c3ccncc3)nn12 (10 µM) | 0 |
| O=C1N[C@@H](Cc2c[nH]c3ccccc23)C(=O)N2CCC[C@@H]12 [Brevianamide F] (10 µM) | 0 |
| Cc1nc2sccn2c(=O)c1CCN1CCC(=C(c2ccccc2)c2ccc(F)cc2)CC1 (10 µM) | 0 |
| O=c1[nH]c(=O)n([C@@H]2O[C@H](CO)[C@@H](O)[C@@H]2O)cc1/C=C/Br [Sorivudine] (10 µM) | 0 |
| COc1cc2nccc(Oc3ccc(NC(=O)NC4CC4)c(Cl)c3)c2cc1C(N)=O [Lenvatinib (mesylate)] (10 µM) | 0 |
| CN1C(=O)N[C@H](Cc2c[nH]c3c(Cl)cccc23)C1=O [Necrostatin 2] (10 µM) | 0 |
| CCN1CCN(Cc2ccc(Nc3ncc(F)c(-c4cc(F)c5nc(C)n(C(C)C)c5c4)n3)nc2)CC1 [Abemaciclib] (2 µM) | 0 |
| Cc1ccc2nc(NCCN)c3ncc(C)n3c2c1 (2.5 µM) | 0 |
| CNC(=O)c1c(F)cccc1Nc1nc(Nc2cc3c(cc2OC)CCN3C(=O)CN(C)C)nc2[nH]ccc12 (10 µM) | 0 |
| Cn1nccc1Nc1nccc(-c2ccn([C@H](CO)c3ccc(Cl)c(F)c3)c(=O)c2)n1 [Ravoxertinib hydrochloride] (10 µM) | 0 |
| CN(C)CCSSCCNC(=O)C1CCN(C(=O)CSc2ccc(Cl)cc2)CC1 (10 µM) | 0 |
| CNC(=O)c1cc(COc2nnc(Nc3ccc(Cl)cc3)c3ccoc23)ccn1 [Telatinib] (10 µM) | 0 |
| NCCNS(=O)(=O)c1cccc2c(Cl)cccc12 [A-3 (hydrochloride)] (10 µM) | 0 |
| O=C(Nc1ccc(CN2CCOCC2)cc1)c1ccc(-c2cccc(Cl)c2)o1 (10 µM) | 1 |
| CCN1CCN(Cc2ccc(-c3cc4c(N[C@H](C)c5ccccc5)ncnc4[nH]3)cc2)CC1 (2.5 µM) | 0 |

Individual results from above:
number of time points, Nc1cc(C(F)(F)F)c(-c2cc(N3CCOCC3)nc(N3CCOCC3)n2)cn1 [Buparlisib (Hydrochloride)] (2.5 µM) reads 0
number of time points, NC(=O)c1ccc2[nH]ccc2c1 (10 µM) reads 0
